Data taken from the supplement of paper PMC10849652.
The list shows a part of the results.

Sequences of proteins named here, by UniProt entry; tags and fusion partners are left off. A change or cut given only in a name is not applied to a line headed by its entry.
UniProt Q00653: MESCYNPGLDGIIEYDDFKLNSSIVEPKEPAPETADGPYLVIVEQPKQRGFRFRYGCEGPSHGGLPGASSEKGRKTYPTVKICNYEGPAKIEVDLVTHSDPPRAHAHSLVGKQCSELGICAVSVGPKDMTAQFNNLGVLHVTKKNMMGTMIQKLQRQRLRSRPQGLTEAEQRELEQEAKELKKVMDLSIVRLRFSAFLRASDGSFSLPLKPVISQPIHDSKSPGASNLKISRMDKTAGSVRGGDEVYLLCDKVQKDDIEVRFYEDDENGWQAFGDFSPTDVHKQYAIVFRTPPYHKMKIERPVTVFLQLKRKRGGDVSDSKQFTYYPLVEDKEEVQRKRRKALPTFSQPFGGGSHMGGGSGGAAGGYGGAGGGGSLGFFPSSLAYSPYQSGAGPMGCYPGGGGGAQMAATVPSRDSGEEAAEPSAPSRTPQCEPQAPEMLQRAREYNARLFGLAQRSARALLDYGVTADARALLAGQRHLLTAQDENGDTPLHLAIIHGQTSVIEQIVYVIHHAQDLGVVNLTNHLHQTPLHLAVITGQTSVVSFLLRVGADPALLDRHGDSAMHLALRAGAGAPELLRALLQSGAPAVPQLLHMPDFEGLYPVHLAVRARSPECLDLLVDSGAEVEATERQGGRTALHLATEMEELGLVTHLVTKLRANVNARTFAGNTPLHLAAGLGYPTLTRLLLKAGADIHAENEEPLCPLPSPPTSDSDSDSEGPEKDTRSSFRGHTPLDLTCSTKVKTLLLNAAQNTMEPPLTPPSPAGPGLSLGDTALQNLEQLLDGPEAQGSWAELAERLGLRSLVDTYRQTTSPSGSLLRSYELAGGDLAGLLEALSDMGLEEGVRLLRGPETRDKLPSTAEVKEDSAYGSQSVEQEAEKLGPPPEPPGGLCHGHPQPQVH
UniProt Q8IXH7, whole entry, looked up: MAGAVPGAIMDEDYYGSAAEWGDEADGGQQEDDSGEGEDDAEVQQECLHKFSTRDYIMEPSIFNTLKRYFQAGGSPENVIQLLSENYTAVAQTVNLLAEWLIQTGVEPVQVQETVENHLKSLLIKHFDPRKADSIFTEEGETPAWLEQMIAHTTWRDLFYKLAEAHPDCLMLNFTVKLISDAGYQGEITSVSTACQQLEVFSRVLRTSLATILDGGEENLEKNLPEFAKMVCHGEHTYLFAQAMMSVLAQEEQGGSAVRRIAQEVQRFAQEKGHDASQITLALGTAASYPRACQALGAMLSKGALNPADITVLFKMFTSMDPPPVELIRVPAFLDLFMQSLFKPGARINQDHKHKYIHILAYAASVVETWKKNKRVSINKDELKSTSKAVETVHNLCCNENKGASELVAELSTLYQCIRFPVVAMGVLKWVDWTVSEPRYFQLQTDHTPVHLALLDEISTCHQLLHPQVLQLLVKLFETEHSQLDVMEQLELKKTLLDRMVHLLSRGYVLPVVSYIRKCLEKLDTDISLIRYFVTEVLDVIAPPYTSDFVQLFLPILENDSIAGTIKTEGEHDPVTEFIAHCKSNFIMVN
UniProt Q86UT6, whole entry, looked up: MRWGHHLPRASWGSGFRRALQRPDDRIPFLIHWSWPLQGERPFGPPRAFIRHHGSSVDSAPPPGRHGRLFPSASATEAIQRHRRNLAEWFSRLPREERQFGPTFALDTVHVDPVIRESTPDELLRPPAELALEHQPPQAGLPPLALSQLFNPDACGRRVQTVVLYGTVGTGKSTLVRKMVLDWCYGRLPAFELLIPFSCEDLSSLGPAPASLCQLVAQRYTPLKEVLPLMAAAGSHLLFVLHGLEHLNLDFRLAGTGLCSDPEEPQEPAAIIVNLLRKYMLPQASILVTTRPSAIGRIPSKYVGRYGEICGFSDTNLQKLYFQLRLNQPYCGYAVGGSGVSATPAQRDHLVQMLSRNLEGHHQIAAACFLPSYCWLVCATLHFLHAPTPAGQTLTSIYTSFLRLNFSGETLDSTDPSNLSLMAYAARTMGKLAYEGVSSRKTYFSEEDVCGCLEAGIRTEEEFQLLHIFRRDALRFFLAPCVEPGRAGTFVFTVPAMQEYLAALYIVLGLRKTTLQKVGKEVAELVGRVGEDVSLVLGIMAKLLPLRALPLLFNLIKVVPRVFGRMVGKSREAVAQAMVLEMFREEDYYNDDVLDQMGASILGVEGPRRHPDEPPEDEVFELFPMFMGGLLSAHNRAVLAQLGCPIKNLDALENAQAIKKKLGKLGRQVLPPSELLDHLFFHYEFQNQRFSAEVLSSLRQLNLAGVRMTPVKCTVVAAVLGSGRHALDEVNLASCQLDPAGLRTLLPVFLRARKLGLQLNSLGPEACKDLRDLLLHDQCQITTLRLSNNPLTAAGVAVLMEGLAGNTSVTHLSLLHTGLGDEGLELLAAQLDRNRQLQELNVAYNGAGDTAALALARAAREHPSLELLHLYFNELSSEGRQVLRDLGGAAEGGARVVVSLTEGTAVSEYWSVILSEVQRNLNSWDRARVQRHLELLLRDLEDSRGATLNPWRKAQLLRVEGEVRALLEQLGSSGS
UniProt P46459: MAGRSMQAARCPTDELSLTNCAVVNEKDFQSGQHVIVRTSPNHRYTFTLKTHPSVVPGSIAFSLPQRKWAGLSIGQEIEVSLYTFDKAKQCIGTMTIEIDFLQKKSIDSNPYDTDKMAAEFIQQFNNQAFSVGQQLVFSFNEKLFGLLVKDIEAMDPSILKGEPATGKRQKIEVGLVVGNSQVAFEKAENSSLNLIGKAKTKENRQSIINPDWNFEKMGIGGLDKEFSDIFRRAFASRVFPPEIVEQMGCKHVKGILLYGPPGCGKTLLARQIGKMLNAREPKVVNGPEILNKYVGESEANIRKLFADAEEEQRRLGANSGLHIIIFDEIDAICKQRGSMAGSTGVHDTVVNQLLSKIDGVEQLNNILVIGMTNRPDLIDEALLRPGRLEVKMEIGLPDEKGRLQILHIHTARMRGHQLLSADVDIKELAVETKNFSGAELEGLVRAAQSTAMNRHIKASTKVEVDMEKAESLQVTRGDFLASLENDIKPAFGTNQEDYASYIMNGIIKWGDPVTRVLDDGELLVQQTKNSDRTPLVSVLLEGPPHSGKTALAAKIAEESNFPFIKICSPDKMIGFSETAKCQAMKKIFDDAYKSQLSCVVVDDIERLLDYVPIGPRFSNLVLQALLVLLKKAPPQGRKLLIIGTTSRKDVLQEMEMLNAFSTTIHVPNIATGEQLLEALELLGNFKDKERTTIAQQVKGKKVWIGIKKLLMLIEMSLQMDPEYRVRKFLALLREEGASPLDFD
UniProt Q9NYR9: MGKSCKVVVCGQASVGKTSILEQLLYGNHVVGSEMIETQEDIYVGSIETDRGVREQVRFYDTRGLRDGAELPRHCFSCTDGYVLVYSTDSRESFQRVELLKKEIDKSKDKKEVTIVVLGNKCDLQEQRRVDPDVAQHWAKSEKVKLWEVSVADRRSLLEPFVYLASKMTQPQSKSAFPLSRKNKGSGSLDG
UniProt P15531, whole entry, looked up: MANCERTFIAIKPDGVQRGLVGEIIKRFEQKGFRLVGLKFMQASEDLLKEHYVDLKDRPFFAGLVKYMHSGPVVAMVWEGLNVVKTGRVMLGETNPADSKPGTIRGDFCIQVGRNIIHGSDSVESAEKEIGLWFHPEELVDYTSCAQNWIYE
UniProt Q8N8Q9: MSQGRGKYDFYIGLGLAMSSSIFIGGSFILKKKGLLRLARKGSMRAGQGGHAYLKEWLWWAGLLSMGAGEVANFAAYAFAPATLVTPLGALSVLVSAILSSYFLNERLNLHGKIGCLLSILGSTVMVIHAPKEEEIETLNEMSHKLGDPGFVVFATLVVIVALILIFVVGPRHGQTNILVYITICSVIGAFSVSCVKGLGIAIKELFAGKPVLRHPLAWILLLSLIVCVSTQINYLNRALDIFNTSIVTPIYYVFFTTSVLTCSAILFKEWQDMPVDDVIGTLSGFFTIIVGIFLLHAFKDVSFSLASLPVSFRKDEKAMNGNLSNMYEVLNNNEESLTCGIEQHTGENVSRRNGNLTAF
UniProt Q8NEJ9: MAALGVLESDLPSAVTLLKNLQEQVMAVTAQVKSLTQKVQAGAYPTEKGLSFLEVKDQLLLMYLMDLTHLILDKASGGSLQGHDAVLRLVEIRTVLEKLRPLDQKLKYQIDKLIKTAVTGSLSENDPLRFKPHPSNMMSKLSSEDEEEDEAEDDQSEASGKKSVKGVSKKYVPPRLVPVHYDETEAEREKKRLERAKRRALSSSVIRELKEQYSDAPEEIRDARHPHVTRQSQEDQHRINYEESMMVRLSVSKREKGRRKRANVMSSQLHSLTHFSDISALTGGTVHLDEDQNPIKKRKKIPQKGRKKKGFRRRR

Assays:
Experiment in all cases: log2 fold change, soluble protein after heating vs DMSO (PISA); higher = thermal stabilisation; K562 cells, 10 uM, 30 min; active = over 0.2 and 3.5 SD of the protein, either way, in both replicates (recomputed)
[1] = compound: C1=CC=C(C=C1)[C@H](COC2=CC3=C(C=C2)NC(=O)N3)NC(=O)C4=CC=CN(C4=O)CC5=CC(=C(C=C5)F)F
How it was run: (§1)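 Soluble protein was defined as the supernatant after 21,000xg for 90 min. It came from K562 cells at 2×10^6 cells/mL given 10 μM compound for 30 min, heated in aliquots for 3 min across 48°C-58°C, pooled, and extracted in PBS with 0.5% NP-40 at 4°C, and was quantified by TMTpro 16plex LC-MS/MS with equalised channel sums. Thermal stability against control samples, from duplicates, is reported as log2 fold change.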

[2] = compound: CC1=C(SC2=C1C(=N[C@H](C3=NN=C(N32)C)CC(=O)N)C4=CC=C(C=C4)Cl)C
How it was run: as §1

[3] = compound: Cc1sc2c(c1C)C(c1ccc(Cl)cc1)=N[C@@H](CC(=O)OC(C)(C)C)c1nnc(C)n1-2
How it was run: as §1

[4] = compound: c1ccc([C@@H]2C[C@H]2NC2CCNCC2)cc1
How it was run: as §1

[5] = compound: CC1=C2C(=CC=C1)N=C(N(C2=O)C3=CC=CC=C3C)CN4C=NC5=C(N=CN=C54)N
How it was run: as §1

Measured: log2 fold change

NFKB2 (UniProt Q00653)
inactive: [1] 0.05 | [2] -0.076 | [3] 0.147 | [4] 0.126

NELFCD (UniProt Q8IXH7)
inactive: [1] -0.022 | [2] 0.155 | [5] 0.214 | [4] 0.034

NLRX1 (UniProt Q86UT6)
inactive: [3] -0.056

NSF (UniProt P46459)
inactive: [1] -0.018 | [2] 0.027 | [5] 0.073 | [3] -0.022 | [4] -0.033

NKIRAS2 (UniProt Q9NYR9)
inactive: [3] 0.057

2 entries drawn at random from the list so far:
NKIRAS2 (UniProt Q9NYR9)
inactive: [3] 0.057

NSF (UniProt P46459)
inactive: [1] -0.018 | [2] 0.027 | [5] 0.073 | [3] -0.022 | [4] -0.033

Next results follow:

NME1 isoform 2 (UniProt P15531)
inactive: [1] 0.095 | [2] 0.142 | [5] 0.069 | [3] 0.033 | [4] -0.108

NIPA2 (UniProt Q8N8Q9)
inactive: [1] -0.003 | [2] -0.017 | [5] -0.036 | [3] -0.029 | [4] 0.106

NGDN (UniProt Q8NEJ9)
inactive: [2] -0.047 | [3] -0.121 | [4] 0.278
